Assay results as given in paper PMC4528263.
Results are given in words; binding and its absence hold for the method and conditions named. In cells and extracts the contact can be indirect. Some binding calls cover weakened binding; strength is not graded here.

Sequences of proteins named here, by UniProt entry; tags and fusion partners are left off. Residues count along the entry.
UniProt O14786, residues 22-923: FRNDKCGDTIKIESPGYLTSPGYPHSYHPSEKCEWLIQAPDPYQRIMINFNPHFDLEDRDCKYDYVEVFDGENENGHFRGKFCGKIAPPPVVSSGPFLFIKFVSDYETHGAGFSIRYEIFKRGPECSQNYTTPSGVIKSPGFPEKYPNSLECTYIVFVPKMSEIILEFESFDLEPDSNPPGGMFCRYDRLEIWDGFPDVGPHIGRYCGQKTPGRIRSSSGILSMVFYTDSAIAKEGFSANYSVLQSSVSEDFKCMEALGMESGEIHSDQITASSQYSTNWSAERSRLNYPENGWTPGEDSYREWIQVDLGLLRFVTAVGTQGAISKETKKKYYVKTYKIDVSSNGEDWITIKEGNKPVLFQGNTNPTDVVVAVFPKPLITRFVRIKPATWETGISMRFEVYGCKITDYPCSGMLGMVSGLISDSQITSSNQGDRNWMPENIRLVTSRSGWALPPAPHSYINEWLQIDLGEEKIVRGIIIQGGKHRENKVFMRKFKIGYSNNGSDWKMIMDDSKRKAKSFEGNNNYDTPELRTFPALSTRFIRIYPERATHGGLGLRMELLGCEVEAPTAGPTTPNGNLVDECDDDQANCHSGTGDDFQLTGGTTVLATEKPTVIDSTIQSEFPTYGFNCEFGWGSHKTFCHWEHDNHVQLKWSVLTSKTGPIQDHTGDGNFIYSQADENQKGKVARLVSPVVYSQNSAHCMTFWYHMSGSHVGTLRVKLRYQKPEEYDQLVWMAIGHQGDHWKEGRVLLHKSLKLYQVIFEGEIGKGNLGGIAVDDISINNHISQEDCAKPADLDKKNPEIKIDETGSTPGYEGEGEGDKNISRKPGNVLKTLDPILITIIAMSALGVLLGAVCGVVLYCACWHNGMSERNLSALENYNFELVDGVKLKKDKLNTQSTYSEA
UniProt P60953: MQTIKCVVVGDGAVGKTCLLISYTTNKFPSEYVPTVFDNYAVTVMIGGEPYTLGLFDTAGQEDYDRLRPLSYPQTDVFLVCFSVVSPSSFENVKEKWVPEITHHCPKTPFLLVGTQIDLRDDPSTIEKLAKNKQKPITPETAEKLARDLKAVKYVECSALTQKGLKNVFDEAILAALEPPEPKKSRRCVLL

Target: Neuropilin 1 (NRP1) (human (endogenous in HDMECs)) (UniProt O14786)
Assay: co-IP; lysates from non-adherent (NA) and FN-adherent HDMECs immunoprecipitated with control IgG or NRP1 antibody, then immunoblotted for NRP1 and CDC42; endogenous proteins

CDC42 (from UniProt P60953 1-191)
binding: binds
